Results taken from paper PMC6312541.
No constants are given. Whether binding was seen depends on the method and setting. In cells and extracts the contact can be indirect. Some binding calls cover weakened binding; strength is not graded here. For part of these data: Sequences can lack the tags named with a protein.

Amino acid sequences for entries named in this document (tags omitted). A change or cut given only in a name is not applied to a line headed by its entry.
UniProt Q13283: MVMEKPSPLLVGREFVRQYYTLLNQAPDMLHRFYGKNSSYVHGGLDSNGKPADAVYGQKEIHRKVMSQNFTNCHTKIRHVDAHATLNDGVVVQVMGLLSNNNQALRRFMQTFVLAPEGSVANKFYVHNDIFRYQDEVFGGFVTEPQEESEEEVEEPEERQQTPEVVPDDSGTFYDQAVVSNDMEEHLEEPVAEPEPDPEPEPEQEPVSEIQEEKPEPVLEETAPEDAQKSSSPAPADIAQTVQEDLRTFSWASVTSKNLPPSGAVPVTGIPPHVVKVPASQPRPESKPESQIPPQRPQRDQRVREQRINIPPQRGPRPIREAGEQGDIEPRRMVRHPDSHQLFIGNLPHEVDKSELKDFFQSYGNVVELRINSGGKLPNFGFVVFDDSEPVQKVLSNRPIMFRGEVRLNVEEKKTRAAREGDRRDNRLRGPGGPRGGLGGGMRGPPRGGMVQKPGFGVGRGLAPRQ
UniProt Q04637: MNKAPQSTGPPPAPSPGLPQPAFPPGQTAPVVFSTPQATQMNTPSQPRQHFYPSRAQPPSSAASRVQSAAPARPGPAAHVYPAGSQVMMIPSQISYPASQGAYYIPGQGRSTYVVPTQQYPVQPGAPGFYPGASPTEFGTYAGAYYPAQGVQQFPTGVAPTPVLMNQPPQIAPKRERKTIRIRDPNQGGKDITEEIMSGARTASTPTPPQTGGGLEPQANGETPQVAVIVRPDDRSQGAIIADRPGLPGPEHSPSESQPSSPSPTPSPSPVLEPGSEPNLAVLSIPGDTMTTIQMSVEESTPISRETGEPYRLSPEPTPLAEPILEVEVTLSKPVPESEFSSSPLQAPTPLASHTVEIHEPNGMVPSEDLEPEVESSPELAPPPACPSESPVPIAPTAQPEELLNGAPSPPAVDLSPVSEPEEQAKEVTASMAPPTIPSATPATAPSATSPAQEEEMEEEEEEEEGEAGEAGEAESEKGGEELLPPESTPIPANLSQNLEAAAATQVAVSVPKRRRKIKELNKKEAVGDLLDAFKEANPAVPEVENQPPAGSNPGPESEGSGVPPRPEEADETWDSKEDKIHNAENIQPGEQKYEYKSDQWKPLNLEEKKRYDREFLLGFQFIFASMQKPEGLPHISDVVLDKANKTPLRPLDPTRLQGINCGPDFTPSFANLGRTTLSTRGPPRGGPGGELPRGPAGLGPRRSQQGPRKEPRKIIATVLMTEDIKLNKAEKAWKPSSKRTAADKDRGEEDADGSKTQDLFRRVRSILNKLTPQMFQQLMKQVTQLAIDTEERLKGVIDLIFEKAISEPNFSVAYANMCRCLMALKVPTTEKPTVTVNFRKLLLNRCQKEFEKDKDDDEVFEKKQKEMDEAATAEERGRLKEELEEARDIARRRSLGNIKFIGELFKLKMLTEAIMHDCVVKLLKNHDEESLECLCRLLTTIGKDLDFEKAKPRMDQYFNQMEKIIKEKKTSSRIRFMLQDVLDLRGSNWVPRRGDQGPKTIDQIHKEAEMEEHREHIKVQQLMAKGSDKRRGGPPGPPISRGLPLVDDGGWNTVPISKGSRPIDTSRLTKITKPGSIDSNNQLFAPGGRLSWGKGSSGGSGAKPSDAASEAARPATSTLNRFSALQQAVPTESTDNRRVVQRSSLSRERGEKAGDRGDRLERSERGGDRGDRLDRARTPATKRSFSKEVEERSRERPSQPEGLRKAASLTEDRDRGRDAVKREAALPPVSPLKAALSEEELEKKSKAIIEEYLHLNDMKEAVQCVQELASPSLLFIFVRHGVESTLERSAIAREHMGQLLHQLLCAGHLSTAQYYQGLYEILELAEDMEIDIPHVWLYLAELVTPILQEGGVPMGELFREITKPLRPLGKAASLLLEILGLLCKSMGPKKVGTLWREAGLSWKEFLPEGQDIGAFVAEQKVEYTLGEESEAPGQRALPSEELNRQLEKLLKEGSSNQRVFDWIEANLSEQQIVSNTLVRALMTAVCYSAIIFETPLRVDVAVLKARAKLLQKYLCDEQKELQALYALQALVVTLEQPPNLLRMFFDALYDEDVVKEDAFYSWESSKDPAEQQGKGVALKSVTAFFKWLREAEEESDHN

Tests used:
Assay in all cases: co-IP; IP with anti-FLAG M2 affinity gel (4 °C, 4 h) from lysates of HeLa cells transfected with Flag-tagged constructs; WB for endogenous eIF4GI; lysis buffer with 1% Triton X-100, 0.1% SDS, 1 mM EDTA, pH 7.4
[1] = molecular target: T1, Flag-tagged TIA-1 (human (cDNA from HeLa cells)) (UniProt P31483)
T1 sequence: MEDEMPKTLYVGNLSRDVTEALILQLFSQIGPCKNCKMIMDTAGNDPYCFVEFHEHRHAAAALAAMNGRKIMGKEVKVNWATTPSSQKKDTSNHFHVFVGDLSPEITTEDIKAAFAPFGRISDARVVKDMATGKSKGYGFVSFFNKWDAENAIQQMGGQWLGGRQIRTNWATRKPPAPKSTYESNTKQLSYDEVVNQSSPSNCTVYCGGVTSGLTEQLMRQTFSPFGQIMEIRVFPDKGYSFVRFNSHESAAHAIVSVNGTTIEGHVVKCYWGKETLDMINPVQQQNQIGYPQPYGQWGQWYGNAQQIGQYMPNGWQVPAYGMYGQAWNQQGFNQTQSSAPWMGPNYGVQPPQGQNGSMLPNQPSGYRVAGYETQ

[2] = molecular target: Flag-tagged G3BP1 (human (from the RefSeq entry NM_005754.2)) (UniProt Q13283)
[3] = molecular target: G3BP1 (partner tested together with G3BP1-ΔRBD, Fig. 5f and 5g) (UniProt Q13283)

In the case of “eIF4GI, endogenous (from UniProt Q04637 1-1599)”, the binding [1] was “no binding”, the binding [2] was “binds” and the binding [3] was “binds”.
